Results deposited as PubChem BioAssay AID504791 (Drosophila RNAi Screening Center, 2011).

Purpose: 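Genes whose knock-down strengthens or weakens small-RNA reporter silencing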 (primary screen)
Cell system: Drosophila S2-derived reporter cells
Reagent: long dsRNA against Drosophila genes, about 150-250 ng dsRNA per well (siRNA assay); about 80-120 ng (miRNA assay)
Time to read-out: about 5 days (siRNA assay); about 4 days (miRNA assay)
Challenge: copper sulfate induction of reporters: 25 µM (siRNA assay); 200 mM stated (miRNA assay), 1-2 days before reading
Detection: 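Dual luciferase assay: Renilla to firefly signal ratio in each well, scaled to the mean ratio of its plate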
Units: stable assay Renilla, run 1 in luminescence; stable assay firefly, run 1 in luminescence
Call rule: 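First-pass picks had plate-scaled ratios over 1.5 for the siRNA assay, over 1.6 for the miRNA assay, or under 0.6; two distinct dsRNAs had to score alike on retest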
The screen tested about 23,000 reagents; shown is an unselected part of those with a known target gene and a result. Of all reagents, 199 (0.86%) got an active call. 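Plate-scaled ratios behind the calls are not deposited; printed light signals are raw; many rows marked increased or decreased are still called inactive.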 Reagents against one gene are numbered here. The record does not give: the direction of the score.

obst-F gave stable assay Renilla, run 1 = 5974; stable assay firefly, run 1 = 4.25e5; inactive.
With knock-down of CG3598, the screen gave stable assay Renilla, run 1 = 6875; stable assay firefly, run 1 = 3.84e5; inactive.
Knock-down of CG2269 gave: stable assay Renilla, run 1 = 8122; stable assay firefly, run 1 = 4.04e5; inactive.
Against CG14631 #1 the deposit lists stable assay Renilla, run 1 = 5998; stable assay firefly, run 1 = 4.61e5; inactive.
CG14631 #2 scored stable assay Renilla, run 1 = 6507; stable assay firefly, run 1 = 2.92e5; inactive.
For CG16815 the deposit lists stable assay Renilla, run 1 = 7640; stable assay firefly, run 1 = 3.87e5; inactive.
For dpr4 #1 the deposit lists stable assay Renilla, run 1 = 6948; stable assay firefly, run 1 = 4.94e5; inactive.
dpr4 #2 showed stable assay Renilla, run 1 = 6991; stable assay firefly, run 1 = 3.91e5; inactive.
Against Glys, the values are stable assay Renilla, run 1 = 8044; stable assay firefly, run 1 = 4.11e5; inactive.
After knock-down of CG7342 the results were stable assay Renilla, run 1 = 8274; stable assay firefly, run 1 = 3.62e5; inactive.
Silencing of CG15375 resulted in: stable assay Renilla, run 1 = 5786; stable assay firefly, run 1 = 4.04e5; inactive.
Against CG13243, the values are stable siRNA reporter change reporter ratio raised past the hit cutoff; stable assay Renilla, run 1 = 9906; stable assay firefly, run 1 = 3.07e5; active.
Depletion of Hexo2 came out at: stable assay Renilla, run 1 = 5479; stable assay firefly, run 1 = 3.60e5; inactive.
Knock-down of Oatp58Db resulted in: stable assay Renilla, run 1 = 7586; stable assay firefly, run 1 = 5.19e5; inactive.
With knock-down of Obp83g the results were stable assay Renilla, run 1 = 6907; stable assay firefly, run 1 = 3.68e5; inactive.
For sturkopf the deposit lists stable assay Renilla, run 1 = 9265; stable assay firefly, run 1 = 3.26e5; inactive.
For TfIIA-S, the entry reads stable assay Renilla, run 1 = 6055; stable assay firefly, run 1 = 3.44e5; inactive.

A run of entries from the list above:
CG3598 — stable assay Renilla, run 1: 6875; stable assay firefly, run 1: 3.84e5; Call: inactive
CG2269 — stable assay Renilla, run 1: 8122; stable assay firefly, run 1: 4.04e5; Call: inactive

Additional results:
Srg3 #1 showed stable assay Renilla, run 1 = 4532; stable assay firefly, run 1 = 4.14e5; inactive.
Against Srg3 #2, the values are stable assay Renilla, run 1 = 7134; stable assay firefly, run 1 = 5.30e5; inactive.
Brms1 scored stable assay Renilla, run 1 = 6255; stable assay firefly, run 1 = 4.59e5; inactive.
CG11694 gave stable assay Renilla, run 1 = 6734; stable assay firefly, run 1 = 3.93e5; inactive.
With knock-down of NaCP60E #1 the results were stable assay Renilla, run 1 = 11939; stable assay firefly, run 1 = 1.13e6; inactive.
With knock-down of NaCP60E #2 the results were stable assay Renilla, run 1 = 9355; stable assay firefly, run 1 = 4.62e5; inactive.
CG7656 scored stable siRNA reporter change reporter ratio lowered past the hit cutoff; stable assay Renilla, run 1 = 4999; stable assay firefly, run 1 = 4.27e5; inactive.
Depletion of Ak6 came out at: stable assay Renilla, run 1 = 6342; stable assay firefly, run 1 = 2.82e5; inactive.
Knock-down of dpr7 gave: stable assay Renilla, run 1 = 7523; stable assay firefly, run 1 = 3.71e5; inactive.
For CG7341 the deposit lists stable assay Renilla, run 1 = 7834; stable assay firefly, run 1 = 3.54e5; inactive.
Cbs gave stable assay Renilla, run 1 = 8952; stable assay firefly, run 1 = 5.31e5; inactive.
